This series is described as follows: general procedure: Fmoc solid-phase peptide synthesis; 2-chlorotrityl chloride resin (Iris Biotech), 0.85 mmol/g; TBTU/DIEA.
The mark [1] stands for this setting: late stage modification step, trifluoroacetate.
Setting [2] is: coupling step, trifluoroacetate.
Setting [3] is: cyclisation step, trifluoroacetate.

As for “[(3R)-3-Hydroxy-L-leucyl]-L-norvalyl-D-arginyl-L-isoleucyl-L-allothreonyl-glycyl-L-alanyl-L-serine bistrifluoroacetate”, the “final purity (method not given)” value under setting [1] is listed as 41% pure.

In the case of “[(3R)-N^2-(Benzyloxycarbonyl)-3-{(tert-butoxycarbonyl)amino}-L-phenylalanyl]-[(3R)-3-hydroxy-L-leucyl]-L-norvalyl-D-arginyl-L-isoleucyl-L-allothreonyl-glycyl-L-seryl-L-serine trifluoroacetate”, the step yield under setting [2] was 91% of theory.

Turning to “N^2.1-(tert-Butoxycarbonyl)-[3-tert-butyl-D-alanyl]-[3-tert-butyl-L-alanyl]-[(3R)-3-amino-4-(dimethylaminophenyl)-L-alanyl]-[(3R)-3-hydroxy-L-leucyl]-L-leucyl-D-arginyl-L-isoleucyl-L-allothreonyl-glycyl-[(3S)-3-hydroxy-L-asparaginyl]-L-serine C^1.11-N^3.3-lactam bishydrochloride”, under setting [2], the “final purity (method not given)” value is reported as “about 66% pure” and the step yield is recorded as 65% of theory.

In the case of “[(3R)-3-Amino-L-phenylalanyl]-[(3R)-3-hydroxy-L-leucyl]-L-leucyl-D-arginyl-L-isoleucyl-L-valyl-glycyl-L-seryl-L-serine C^1.9-N^3.1-lactam bishydrochloride”, where the note is “late stage modification step, of theory from 398A, trifluoroacetate”, the step yield is recorded as 83% of theory.

“[(3R)-N^2-(Benzyloxycarbonyl)-3-{(tert-butoxycarbonyl)amino}-L-phenylalanyl]-[(3R)-3-hydroxy-L-leucyl]-L-leucyl-D-arginyl-L-isoleucyl-L-allothreonyl-glycyl-L-seryl-L-serine trifluoroacetate”: the step yield under setting [2] is recorded as 59% of theory.

As to “Benzyl [(3R)-N^2-(tert-butoxycarbonyl)-3-hydroxy-L-leucyl]-L-leucyl-D-arginyl-L-isoleucyl-L-allothreonyl-glycyl-L-phenylalanyl-L-serinate trifluoroacetate”, the step yield under setting [2] is 33% of theory.

Regarding “[(3R)-3-Amino-L-phenylalanyl]-[(3R)-3-hydroxy-L-leucyl]-[3-tertbutyl-L-alanyl]-D-arginyl-L-isoleucyl-L-allothreonyl-glycyl-L-seryl-L-serine C^1.9-N^3.1-lactam bishydrochloride”, where the note is “late stage modification step, of theory from 385A, trifluoroacetate”, the step yield is recorded as 63% of theory.

Turning to “[(3R)-N^2-(Benzyloxycarbonyl)-3-amino-L-phenylalanyl]-[(3R)-3-hydroxy-L-leucyl]-L-leucyl-D-arginyl-L-isoleucyl-L-allothreonyl-glycyl-L-allothreonyl-L-aserinate C^1.9-N^3.1-lactam trifluoroacetate”, under setting [3], the “crude purity (method not given)” value is on record as 75% pure and the cyclisation yield is 86% of theory.

Take “Benzyl [(3R)-N^2-(tert-butoxycarbonyl)-3-hydroxy-L-leucyl]-L-leucyl-D-arginyl-L-isoleucyl-L-allothreoninate trifluoroacetate”: under setting [2], the step yield is listed as 74% of theory.

“[(3R)-3-Hydroxy-L-leucyl]-L-leucyl-D-arginyl-L-isoleucyl-L-allothreonyl-glycyl-[(2S)-2-amino-3-(9H-fluoren-9-ylmethoxycarbonyl)aminobutyryl]-L-serine bistrifluoroacetate”: for the setting “late stage modification step, from 701 mg (0.50 mmol) of 288A, trifluoroacetate”, the step yield is 98% of theory.

On to “{(3R)-3-Amino-L-phenylalanyl}-[(3R)-3-hydroxy-L-leucyl]-L-leucyl-(N^6-benzyloxycarbonyl-D-lysyl)-L-isoleucyl-L-allothreonyl-glycyl-L-seryl-L-serine C^1.9-N^3.1-lactam”, for which, where the note is “late stage modification step, of theory from 403A, trifluoroacetate”, the step yield is 92% of theory.

For the substance “D-Leucyl-L-leucyl-[(3R)-3-amino-L-phenylalanyl]-[(3R)-3-hydroxy-L-leucyl]-L-leucyl-D-arginyl-L-isoleucyl-L-threonyl-glycyl-L-asparaginyl-L-serine C^1.11-N^3.3-lactam bistrifluoroacetate”, the step yield under setting [1] is reported as 56.1% of theory.

Take “[(3R)-3-Amino-L-phenylalanyl]-[(3R)-3-hydroxy-L-leucyl]-L-isoleucyl-D-arginyl-L-isoleucyl-L-allothreonyl-glycyl-L-seryl-L-serine C^1.9-N^3.1-lactam bishydrochloride”: the step yield (late stage modification step, of theory from 399A, trifluoroacetate) is 93% of theory. Further, the “purity (crude or final not stated)” value under setting [1] came to 93% pure.

Regarding “[3-tert-Butyl-D-alanyl]-[3-tert-butyl-L-alanyl]-[(3R)-3-amino-L-phenylalanyl]-[(3R)-3-hydroxy-L-leucyl]-L-leucyl-D-arginyl-L-phenylalanyl-L-allothreonyl-glycyl-L-seryl-L-serine C^1.11-N^3.3-lactam”, the step yield (late stage modification step, from compound 442A, trifluoroacetate) was 67% of theory.

Regarding “[(3R)-N^2-(Benzyloxycarbonyl)-3-{(tert-butoxycarbonyl)amino}-L-phenylalanyl]-[(3R)-3-hydroxy-L-leucyl]-L-norvalyl-D-arginyl-L-isoleucyl-L-allothreonyl-glycyl-L-alanyl-L-serine trifluoroacetate”, the step yield under setting [2] is 23% of theory.

Take “[(3R)-N^2-(Benzyloxycarbonyl)-3-amino-L-phenylalanyl]-[(3R)-3-hydroxy-L-leucyl]-L-leucyl-D-arginyl-L-isoleucyl-L-allothreonyl-glycyl-L-seryl-L-serine C^1.9-N^3.1-lactam Trifluoroacetate”: the cyclisation yield under setting [3] is 43% of theory.

With “{(3R)-N^2-[(9H-Fluoren-9-ylmethoxy)carbonyl]-3-amino-L-phenylalanyl}-[(3R)-3-hydroxy-L-leucyl]-L-leucyl-[(2R)-2-amino-4-benzyloxycarbonylaminobutyryl]-L-isoleucyl-L-allothreonyl-glycyl-L-seryl-L-serine C^1.9-N^3.1-lactam trifluoroacetate”, for the setting “cyclisation step, from 378A, trifluoroacetate”, the cyclisation yield is listed as 85% of theory. Further, under setting [3], the “final purity (method not given)” value amounted to 86% pure.

Turning to “[(3R)-3-Amino-L-phenylalanyl]-[(3R)-3-hydroxy-L-leucyl]-L-leucyl-D-arginyl-L-isoleucyl-L-allothreonyl-glycyl-[(2S)-2-amino-3-(9H-fluoren-9-ylmethoxycarbonyl)aminobutyryl]-L-serine C^1.9-N^3.1-lactam bishydrochloride”, the step yield (late stage modification step, of theory from 383A, trifluoroacetate) was 63% of theory.

“[(3R)-N^2-(Benzyloxycarbonyl)-3-{(tert-butoxycarbonyl)amino}-L-phenylalanyl]-[(3R)-3-hydroxy-L-leucyl]-L-norleucyl-D-arginyl-L-isoleucyl-L-allothreonyl-glycyl-L-alanyl-L-serine trifluoroacetate”: the step yield under setting [2] is on record as 25% of theory.

Consider “[3-tert-Butyl-D-alanyl]-[3-tert-Butyl-L-alanyl]-[(3R)-3-amino-L-phenylalanyl]-[(3R)-3-hydroxy-L-leucyl]-L-leucyl-D-arginyl-L-isoleucyl-L-allothreonyl-glycyl-L-seryl-L-serine C^1.11-N^3.3-lactam bistrifluoroacetate”, for which the step yield under setting [1] is 53% of theory.

For “[(3R)-3-Hydroxy-L-leucyl]-L-norvalyl-D-arginyl-L isoleucyl-L-allothreonyl-glycyl-L-seryl-L-serine bistrifluoroacetate”, the “final purity (method not given)” value under setting [1] stood at 35% pure.

“[(3R)-3-Amino-L-phenylalanyl]-[(3R)-3-hydroxy-L-leucyl]-L-leucyl-D-arginyl-L-isoleucyl-L-allothreonyl-glycyl-L-alanyl-L-serine C^1.9-N^3.1-lactam bishydrochloride”: the step yield under setting [1] is reported as 99% of theory.

In the case of “[3-Trimethylsilyl-D-alanyl]-[3-(3-pyridyl)-L-alanyl]-[(3R)-3-amino-L-phenylalanyl]-[(3R)-3-hydroxy-L-leucyl]-L-norleucyl-D-arginyl-L-isoleucyl-L-allothreonyl-glycyl-L-alanyl-L-serine C^1.11-N^3.3-lactam”, the step yield (late stage modification step, from compound 456A, trifluoroacetate) is reported as 47% of theory.

For “[(3R)-N^2-(Benzyloxycarbonyl)-3-amino-L-phenylalanyl]-[(3R)-3-hydroxy-L-leucyl]-L-leucyl-D-arginyl-L-isoleucyl-L-valyl-glycyl-L-seryl-L-serine bistrifluoroacetate”, the step yield under setting [1] is 99% of theory.

Turning to “[(3R)-N^2-(Benzyloxycarbonyl)-3-{(tert-butoxycarbonyl)amino}-L-phenylalanyl]-[(3R)-3-hydroxy-L-leucyl]-L-leucyl-D-arginyl-L-isoleucyl-L-leucyl-glycyl-L-seryl-L-serine trifluoroacetate”, under setting [2], the step yield is 14% of theory.

As to “[(3R)-N^2-(Benzyloxycarbonyl)-3-amino-L-phenylalanyl]-[(3R)-3-hydroxy-L-leucyl]-L-norvalyl-D-arginyl-L-isoleucyl-L-allothreonyl-glycyl-L-seryl-L-serine C^1.9-N^3.1-lactam trifluoroacetate”, the cyclisation yield (cyclisation step, from 371A, trifluoroacetate) was 77% of theory.

For the substance “[(3R)-3-Hydroxy-L-leucyl]-L-leucyl-D-arginyl-L-isoleucyl-L-valyl-glycyl-L-seryl-L-serine bistrifluoroacetate”, under setting [1], the “final purity (method not given)” value is given as 72% pure.

For the substance “[N^2-(tert.-Butoxycarbonyl)-3-tert-butyl-D-alanyl]-[3-tert-butyl-L-alanyl]-[(3R)-3-amino-L-phenylalanyl]-[(3R)-3-hydroxy-L-leucyl]-L-leucyl-D-arginyl-L-isoleucyl-L-allothreonyl-glycyl-[(3S)-3-hydroxy-L-asparaginyl]-L-alanine C^1.11-N^3.3-lactam hydrochloride”, the step yield (coupling step, hydrochloride) is given as 85% of theory.

Take “[3-tert-Butyl-D-alanyl]-[3-tert-butyl-L-alanyl]-[(3R)-3-amino-L-phenylalanyl]-[(3R)-3-hydroxy-L-leucyl]-L-leucyl-D-ornithyl-L-isoleucyl-L-allothreonyl-glycyl-L-seryl-L-serine C^1.11-N^3.3-lactam”: where the note is “late stage modification step, from compound 451A, trifluoroacetate”, the step yield is given as 25% of theory.

The values above are taken from US8076285B2 (Aicuris GmbH & Co. KG, priority 2006, dated 2011).
